## Screening data, single-dose tests

Sequences of proteins named here, by UniProt entry; tags and fusion partners are left off. Residues count along the entry.
UniProt P9WFT3, whole entry: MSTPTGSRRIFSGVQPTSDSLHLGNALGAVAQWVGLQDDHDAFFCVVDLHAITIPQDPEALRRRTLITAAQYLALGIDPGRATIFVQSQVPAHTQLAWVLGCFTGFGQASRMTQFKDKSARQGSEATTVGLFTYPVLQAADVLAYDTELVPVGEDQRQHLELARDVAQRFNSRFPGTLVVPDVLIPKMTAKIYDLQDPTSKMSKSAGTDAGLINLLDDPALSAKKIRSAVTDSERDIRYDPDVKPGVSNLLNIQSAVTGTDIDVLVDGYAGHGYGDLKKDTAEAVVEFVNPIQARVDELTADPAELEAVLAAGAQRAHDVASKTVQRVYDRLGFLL
UniProt Q8IDJ8, 1-583: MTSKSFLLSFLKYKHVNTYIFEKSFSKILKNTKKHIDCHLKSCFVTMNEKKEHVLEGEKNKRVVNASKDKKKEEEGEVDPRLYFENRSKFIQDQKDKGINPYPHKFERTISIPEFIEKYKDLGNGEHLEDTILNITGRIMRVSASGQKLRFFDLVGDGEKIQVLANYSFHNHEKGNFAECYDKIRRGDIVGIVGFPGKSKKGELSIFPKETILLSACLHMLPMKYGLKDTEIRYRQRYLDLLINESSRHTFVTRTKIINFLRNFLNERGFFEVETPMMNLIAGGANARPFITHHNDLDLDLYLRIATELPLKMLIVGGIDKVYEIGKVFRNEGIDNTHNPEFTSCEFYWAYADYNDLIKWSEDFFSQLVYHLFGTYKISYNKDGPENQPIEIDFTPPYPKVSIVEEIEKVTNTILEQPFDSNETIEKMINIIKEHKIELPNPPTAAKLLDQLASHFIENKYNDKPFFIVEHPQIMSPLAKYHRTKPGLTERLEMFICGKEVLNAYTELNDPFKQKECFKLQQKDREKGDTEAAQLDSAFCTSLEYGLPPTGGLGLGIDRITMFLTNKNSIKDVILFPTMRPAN
UniProt P9WNZ1, whole entry: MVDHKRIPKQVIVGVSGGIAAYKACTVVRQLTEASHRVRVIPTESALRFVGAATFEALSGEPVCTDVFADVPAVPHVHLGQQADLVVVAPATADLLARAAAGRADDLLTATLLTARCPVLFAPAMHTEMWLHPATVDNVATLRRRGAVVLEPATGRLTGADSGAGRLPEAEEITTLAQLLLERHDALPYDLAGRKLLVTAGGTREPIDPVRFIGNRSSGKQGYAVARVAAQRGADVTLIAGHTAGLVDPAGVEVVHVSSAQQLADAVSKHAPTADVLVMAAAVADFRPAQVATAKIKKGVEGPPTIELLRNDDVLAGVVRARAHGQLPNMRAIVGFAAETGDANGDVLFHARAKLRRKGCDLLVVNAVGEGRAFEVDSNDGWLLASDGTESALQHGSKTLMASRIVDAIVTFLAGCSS
UniProt P9WPC5, whole entry: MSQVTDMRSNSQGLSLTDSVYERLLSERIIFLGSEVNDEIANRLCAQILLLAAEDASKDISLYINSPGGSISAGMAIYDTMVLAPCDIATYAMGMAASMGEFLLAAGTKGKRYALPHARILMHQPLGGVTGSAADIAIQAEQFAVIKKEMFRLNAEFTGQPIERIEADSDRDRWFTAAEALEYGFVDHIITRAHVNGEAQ
UniProt P9WPC3, whole entry partner: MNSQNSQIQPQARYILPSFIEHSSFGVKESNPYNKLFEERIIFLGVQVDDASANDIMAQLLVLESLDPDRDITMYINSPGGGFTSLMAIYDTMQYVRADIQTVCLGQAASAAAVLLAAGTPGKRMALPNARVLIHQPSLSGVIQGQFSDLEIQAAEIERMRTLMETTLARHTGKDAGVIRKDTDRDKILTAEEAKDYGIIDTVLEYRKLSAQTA
UniProt Q4DA54, 1-478: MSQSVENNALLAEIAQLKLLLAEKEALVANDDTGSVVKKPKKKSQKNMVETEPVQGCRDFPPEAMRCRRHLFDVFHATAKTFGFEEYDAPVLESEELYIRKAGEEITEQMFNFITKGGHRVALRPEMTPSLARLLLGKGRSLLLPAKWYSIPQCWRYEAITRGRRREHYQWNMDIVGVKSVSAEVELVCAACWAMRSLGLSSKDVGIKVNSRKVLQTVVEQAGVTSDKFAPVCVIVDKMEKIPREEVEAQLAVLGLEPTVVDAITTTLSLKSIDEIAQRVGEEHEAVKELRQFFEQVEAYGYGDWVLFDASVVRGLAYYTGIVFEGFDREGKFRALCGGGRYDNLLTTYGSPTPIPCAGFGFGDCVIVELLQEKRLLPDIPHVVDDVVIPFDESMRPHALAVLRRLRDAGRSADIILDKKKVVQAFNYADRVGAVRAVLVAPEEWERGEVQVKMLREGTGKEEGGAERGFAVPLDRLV

Measurements from “University of Dundee, Small-Polar-MMV Screening Library” (2021), ChEMBL document CHEMBL3988442.

Values are the deposited “Percent Effect”, in %.
How 0% and 100% were set is not recorded. Most values in the screen are low, and negative values occur.
This is an unselected part of the compounds tested.
A dash means the value is not listed here; it may have been measured.

MtTrpRS: 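Enzyme assay of tryptophanyl-tRNA synthetase; the read-out is not stated. Target: Tryptophan-tRNA ligase, Mycobacterium tuberculosis (UniProt P9WFT3). Concentration: 10 µM. Direction is not recorded; retested compounds ran higher, which suggests that high means inhibition. Of about 65,000 compounds tested this way, about 64 (0.098%) reached 50% or more in at least one test.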
PfKRS1: 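Lysine-tRNA ligase, Plasmodium falciparum 3D7 (UniProt Q8IDJ8). Enzyme assay of the cytosolic lysyl-tRNA synthetase in 384-well plates, read by luminescence. Compounds at 30 µM. Higher reads as stronger inhibition, judged from the few compounds that gave an IC50. About 69,000 compounds were tested under these conditions; 0.071% (about 49) showed 50% or more at least once.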
CoaBC: 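Enzyme assay of CoaBC with a phosphate dye (Biomol Green) read at 650 nm. Target: Coenzyme A biosynthesis protein CoaBC, Mycobacterium tuberculosis (UniProt P9WNZ1). Tested at 30 µM. Direction is inferred from only a few compounds that gave an IC50; most scored high, so higher reads as stronger inhibition. Most strong results did not repeat in a second test. Size under these conditions: about 67,000 compounds, about 40 of them at 50% or above in at least one test.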
ClpP1P2: 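Protease assay of ClpP1P2, read by the AMC dye that it sets free. Target: ClpP1P2, Mycobacterium tuberculosis (UniProt P9WPC5 and UniProt P9WPC3). Concentration: 50 µM. Higher reads as stronger inhibition, judged from the few compounds that gave an IC50. Most other retested compounds had strongly negative values. Of about 69,000 compounds tested this way, about 10 (0.015%) reached 50% or more in at least one test.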
TcHisRS: 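Histidine-tRNA ligase, Trypanosoma cruzi CL Brener (UniProt Q4DA54). Enzyme assay of histidyl-tRNA synthetase; the read-out is not stated. Compounds at 30 µM. Higher reads as stronger inhibition (inferred: compounds with an IC50 in retests scored well above the rest). Size under these conditions: about 69,000 compounds, about 31 of them at 50% or above in at least one test.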

compound	MtTrpRS	PfKRS1	CoaBC	ClpP1P2	TcHisRS
CCNc1nc2c(s1)C(=O)CN(C(=O)NCc1ccccc1)C2	-	10.22%	0.1205%	-10.63%	2.26%
CCCS(=O)(=O)NCCc1ncc(CC)s1	0.9709%	-1.487%	1.928%	-6.277%	0.9901%
Cc1cccc(-c2nnc(C(C)N3CCn4c(C)nnc4C3)o2)c1 (centres undefined)	-2.401%	-0.9849%	4.202%	-2.042%	-2.222%
CCC(=O)Nc1nnc(CCOc2ccccc2)s1	0%	2.171%	1.848%	-16.57%	2.609%
CC(C)(CNc1ccc(C#N)c(C(F)(F)F)c1)C(N)=O	0.09551%	7.326%	5.976%	-4.271%	4.211%
COCCN(Cc1cccc(OCCO)c1)Cc1ccccc1F	-1.095%	1.026%	3.62%	-11.37%	2.041%
Cc1cc(CN(C)CC2CC(C3CCCCC3)=NO2)no1 (centres undefined)	0.8704%	6.233%	9.091%	5.871%	5.978%
CCN(CCN1CCOCC1)C(=O)c1cccnc1	0%	3.365%	18.36%	-5.886%	-1.02%
CC(C)(NC(=O)c1ccc(-c2ccccc2F)s1)C(N)=O	-6.417%	0.3185%	2.581%	18.47%	0.5181%
c1cc(CN2CCc3ncc(CN4CCCCC4)n3CC2)cs1	-2.102%	-3.624%	0.1233%	-3.6%	3.509%
CC1CN(C(=O)c2ccnc(OCCN(C)C)c2)c2ccccc21 (centres undefined)	-1.068%	4.512%	-8.612%	-0.7822%	2.941%
N#Cc1c(CN2CCCCC2Cn2cncn2)cn2ccccc12 (centres undefined)	-3.288%	0.07105%	4.833%	-3.494%	5.208%
CN(CC(=O)N1CCC(N(C)c2ccccc2)CC1)c1cnccn1	7.547%	-0.1112%	7.347%	-19.22%	6.706%
COc1ncc(Cl)c(NCc2ccc([S+](C)[O-])cc2)n1 (centres undefined)	3.744%	-2.989%	2.73%	-11.35%	12.14%
Cc1cnn(CC2CCCCN2Cc2nnc(-c3ccco3)o2)c1 (centres undefined)	-2.113%	3.588%	5.338%	1.809%	3.759%
OCCOc1nc(-c2ccccc2Cl)no1	2.495%	2.701%	12.58%	-8.685%	1.653%
CC(C)n1ccnc1CN1CCCN(C(=O)c2nccnc2N)CC1	-2.45%	2.391%	1.036%	12.12%	1.527%
CC(C)(C(=O)NCC(=O)NC1CC1)c1ccccc1F	-1.29%	2.838%	14.81%	2.048%	-4.386%
COCCCN1C(=O)CC[C@H]2CN(c3nc4ccccc4s3)CC[C@H]21	2.46%	3.106%	1.615%	-22.85%	-0.9662%
CC(C)C(=O)N1CCC12CCCN(C(=O)c1ccccc1)C2 (centres undefined)	-1.803%	4.723%	-5.092%	12.87%	9.195%
COC(=O)c1cccn1C1CCN(Cc2nc3ccccc3o2)CC1	0.5111%	0.4957%	-6.434%	-39.22%	4.274%
COc1cccc(C(=O)NC(c2ccccn2)[C@H]2CC[C@H](CN)CC2)c1 (some centres undefined)	-	4.366%	4.369%	-4.03%	2.198%
O=C1NCc2ccc(NC(=O)C3CCCN3c3nccs3)cc21 (centres undefined)	-2.301%	4.196%	3.109%	14.42%	7.634%
Cn1c(CCC(=O)N2CCC3(CCCO3)CC2)nc2cccnc21	0.6101%	2.526%	3.469%	-4.638%	2.146%
O=C(NCc1cccs1)[C@@H]1CC[C@@H]2[C@@H](CCN2C2CCOCC2)O1	2.905%	1.174%	2.506%	-6.884%	7.317%
Cc1cnccc1-c1cnn(CCNC(=O)C(C)(C)C)c1C1CC1	5.699%	-2.593%	4.196%	-5.707%	-1.128%
COc1cc(CN(Cc2ccccn2)CC(C)C)cc2c1OCO2	0.7524%	0.2525%	-2.683%	-17.43%	-1.961%
CCOc1c(Cl)cccc1NCc1cc(C)on1	-1.262%	0.4923%	-1.554%	26.68%	0.7634%
CC1(C)OC(=O)N(CC(=O)N2CCC(c3ccccc3F)C2)C1=O (centres undefined)	3.785%	1.575%	6.472%	-6.87%	5.025%
COc1ccc2c(c1)CCCN2Cc1nc(C)c(C)o1	-1.004%	3.968%	-40.53%	-5.819%	-3.509%
O=C(N1CCCC1)N1CCC2(CCCN(CCOc3ccccc3)C2)C1 (centres undefined)	-1.298%	-5.649%	-1.935%	12.77%	6.015%
CCOc1ccnc(N2CCN(C(=O)c3cnc[nH]3)CC2)n1	-5.96%	0.8024%	5.249%	-9.876%	6.857%
O=C(c1cnccn1)N1CCc2c(COCC3CC3)cncc2C1	-9.3%	-0.7663%	-2.03%	-1.213%	1.97%
CN(C)C(=O)CN1CCC2(CCN(S(=O)(=O)C3CC3)CC2)C1=O	-5.087%	5.22%	3.99%	-0.7957%	8.738%
O=C1NCCCC[C@@H]1Nc1ccc(-c2nc(C3CC3)no2)cn1	0.6369%	2.566%	0%	-3.077%	5.319%
O=C(NCC1(O)CCSC1)c1ccoc1 (centres undefined)	2.624%	1.965%	7.158%	-5.81%	4.255%
CC1CCN(c2ccc(CNC(=O)NCCn3ccnc3)cn2)CC1	-1.312%	-1.469%	1.621%	2.366%	4.04%
CN(C)c1ncccc1CNc1cc(N2CCCC2CO)ncn1 (centres undefined)	-1.168%	-0.6327%	-4.318%	-13.97%	4.035%
CCc1nc(C)c(C(C)N(C)CCc2ccccn2)s1 (centres undefined)	3.193%	6.659%	-5.38%	5.107%	3.448%
O=C(NCC1CC1)c1cnc(-c2ccccc2)nc1	-0.6157%	3.771%	2.146%	-11.08%	4.651%
Cc1nc(CN(C)C2CCN(CC(=O)N3CCOCC3)C2)no1 (centres undefined)	4.956%	1.445%	11.13%	7.961%	4.215%
Cc1cnc(C)c(N2CCN(Cc3ccc(C)c(C)c3)CC2)n1	0.1575%	7.171%	5.115%	-11.66%	2.02%
CCNc1ncc(CN2C[C@@H](CN3CCC(CO)CC3)[C@@H](CO)C2)cn1	-1.816%	3.873%	-7.863%	9.531%	4.348%
N#Cc1cccc(OCCN2CCCC2C(=O)Nc2nccs2)c1 (centres undefined)	3.374%	-4.624%	6.59%	-3.052%	-0.8772%
CCc1nnc2n1CCN(C(=O)COCCc1ccccc1)C2	1.852%	5.817%	6.177%	4.331%	-1.515%
O=C([C@@H]1CC[C@@H]2[C@@H](CCN2Cc2cccc(F)c2)O1)N1CCCCO1	3.043%	-1.614%	-0.1269%	17.49%	1.622%
COc1cc2c(nn1)CCN(Cc1ncc(C(C)(C)C)o1)C2	7.802%	2.007%	8.884%	-7.956%	19.05%
O=C(N1CCC(Oc2ccncc2)CC1)C1(c2ccc(F)cc2)CC1	1.192%	3.491%	10.51%	-0.7457%	9.836%
COC(CNC(=O)c1ccc[nH]1)c1cccc(Cl)c1 (centres undefined)	-1.234%	6.306%	2.331%	1.465%	4.938%
CC(C)c1cc(=O)[nH]c(-n2nc(C3CC3)cc2N)n1	-3.333%	8.526%	-2.29%	1.108%	0%
CN(C)C(=O)c1cccc(CCNS(C)(=O)=O)c1	-2.187%	8.617%	7.143%	-7.418%	0%

Some entries from above, unchanged:

Result for COc1ccc2c(c1)CCCN2Cc1nc(C)c(C)o1 was MtTrpRS: -1.004%; PfKRS1: 3.968%; CoaBC: -40.53%; ClpP1P2: -5.819%; TcHisRS: -3.509%.
Result for CCN(CCN1CCOCC1)C(=O)c1cccnc1 was MtTrpRS: 0%; PfKRS1: 3.365%; CoaBC: 18.36%; ClpP1P2: -5.886%; TcHisRS: -1.02%.
Result for COC(CNC(=O)c1ccc[nH]1)c1cccc(Cl)c1 (centres undefined) was MtTrpRS: -1.234%; PfKRS1: 6.306%; CoaBC: 2.331%; ClpP1P2: 1.465%; TcHisRS: 4.938%.